Record: PubChem BioAssay AID1224826 (NIAID, 2016)
This is an unselected part of about 17,000 deposited reagents. About 1,110 of all reagents (6.6%) count as active. 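Active means lowered or raised reporter signal; replicate intensities are raw and not normalised per plate.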

- Purpose: 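Knock-downs that raise or lower Tnf reporter signal after endotoxin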 (primary screen)
- System: RAW264.7 G9 macrophages from mouse bearing reporters for p65 (GFP) and the Tnf promoter (mCherry)
- Reagents: siRNA pool against mouse genes, 100 nM
- Time to read-out: 16 h of LPS stimulation, after 2 days of siRNA transfection
- Challenge: bacterial lipopolysaccharide (Salmonella minnesota R595), 10 ng/ml
- Detection: 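Imaged Tnf reporter mCherry in nuclei, minus background, normalised per plate to the median and expressed as robust z-scores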
- Direction: Tnf reporter robust z-score: higher = stronger Tnf promoter reporter signal after LPS; Tnf reporter intensity: higher = stronger Tnf promoter reporter signal
- Active means: 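a well counts as active at a score of -1.3 or below (Tlr4 knock-down control median) or above 3 (raised signal); controls and wells holding fewer than 50 cells are excluded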
- Calls: active = Tnf reporter clearly lowered or raised; inactive = no clear change in Tnf reporter

| target gene | Tnf reporter robust z-score | fewer than 50 cells in well | Tnf reporter intensity, replicate 1 | Tnf reporter intensity, replicate 2 | activity call |
| --- | --- | --- | --- | --- | --- |
| Or52w1 (olfactory receptor family 52 subfamily W member 1) | 3.2 | enough cells in well | 150 | 315 | active |
| Inha (inhibin alpha) | -0.38 | enough cells in well | 213 | 128 | inactive |
| Olfr100 (olfactory receptor 100) | -0.88 | enough cells in well | 134 | 104 | inactive |
| Zc3hav1l (zinc finger CCCH-type, antiviral 1-like) | 0.58 | enough cells in well | 235 | 168 | inactive |
| Drc3 (dynein regulatory complex subunit 3) | – | fewer than 50 cells per well; well left out of calls | 180 | 39.2 | inactive |
| Slco1b2 | – | fewer than 50 cells per well; well left out of calls | 0 | 0 | inactive |
| Map4 (microtubule-associated protein 4) | 1.79 | enough cells in well | 276 | 219 | inactive |
| Gpr101 (G protein-coupled receptor 101) | -0.56 | enough cells in well | 172 | 242 | inactive |
| Vmn1r30 (vomeronasal 1 receptor 30) | 2.3 | enough cells in well | 211 | 158 | inactive |
| Ankmy1 (ankyrin repeat and MYND domain containing 1) | 0.49 | enough cells in well | 203 | 91.2 | inactive |
| Samsn1 (SAM domain, SH3 domain and nuclear localization signals, 1) | -0.75 | enough cells in well | 263 | 132 | inactive |
| Or4d10b (olfactory receptor family 4 subfamily D member 10B) | 0.21 | enough cells in well | 178 | 140 | inactive |
| Fam76a (family with sequence similarity 76, member A) | -1.4 | enough cells in well | 90.5 | 130 | active |
| Mgst2 (microsomal glutathione S-transferase 2) | 0.41 | enough cells in well | 182 | 195 | inactive |
| Nmnat3 (nicotinamide nucleotide adenylyltransferase 3) | – | fewer than 50 cells per well; well left out of calls | 249 | 61.5 | inactive |
| Champ1 (chromosome alignment maintaining phosphoprotein 1) | -0.43 | enough cells in well | 165 | 135 | inactive |
| Guca2b (guanylate cyclase activator 2b) | -0.26 | enough cells in well | 231 | 217 | inactive |

Sorted by “Tnf reporter intensity, replicate 1” (lowest first): some entries from above.
| target gene | Tnf reporter robust z-score | fewer than 50 cells in well | Tnf reporter intensity, replicate 1 | Tnf reporter intensity, replicate 2 | activity call |
| --- | --- | --- | --- | --- | --- |
| Slco1b2 | – | fewer than 50 cells per well; well left out of calls | 0 | 0 | inactive |
| Gpr101 (G protein-coupled receptor 101) | -0.56 | enough cells in well | 172 | 242 | inactive |
| Drc3 (dynein regulatory complex subunit 3) | – | fewer than 50 cells per well; well left out of calls | 180 | 39.2 | inactive |
| Zc3hav1l (zinc finger CCCH-type, antiviral 1-like) | 0.58 | enough cells in well | 235 | 168 | inactive |
| Map4 (microtubule-associated protein 4) | 1.79 | enough cells in well | 276 | 219 | inactive |

More entries follow:
| target gene | Tnf reporter robust z-score | fewer than 50 cells in well | Tnf reporter intensity, replicate 1 | Tnf reporter intensity, replicate 2 | activity call |
| --- | --- | --- | --- | --- | --- |
| Zfp85 (zinc finger protein 85) | -1.58 | enough cells in well | 84 | 28.8 | active |
| U2af1 (U2 small nuclear ribonucleoprotein auxiliary factor (U2AF) 1) | – | fewer than 50 cells per well; well left out of calls | 46 | 37.9 | inactive |
| Abca14 (ATP-binding cassette, sub-family A member 14) | – | fewer than 50 cells per well; well left out of calls | 207 | 130 | inactive |
| Amelx (amelogenin, X-linked) | 1.13 | enough cells in well | 225 | 243 | inactive |
| Or6c1 (olfactory receptor family 6 subfamily C member 1) | – | fewer than 50 cells per well; well left out of calls | 87.1 | 49.6 | inactive |
| Gabpa (GA repeat binding protein, alpha) | -0.95 | enough cells in well | 144 | 187 | inactive |
| Pafah1b1 | -1.18 | enough cells in well | 137 | 116 | inactive |
| Kif27 (kinesin family member 27) | 0.69 | enough cells in well | 244 | 86.2 | inactive |
| Dcaf10 (DDB1 and CUL4 associated factor 10) | -1.07 | enough cells in well | 98.4 | 110 | inactive |
| Pcdhgb4 (protocadherin gamma subfamily B, 4) | -0.32 | enough cells in well | 95.2 | 153 | inactive |
| Rasgrp2 (RAS, guanyl releasing protein 2) | -0.66 | enough cells in well | 250 | 153 | inactive |
| Nherf2 (NHERF family PDZ scaffold protein 2) | – | fewer than 50 cells per well; well left out of calls | 76.7 | 857 | inactive |
| Zfp68 (zinc finger protein 68) | -0.8 | enough cells in well | 45.2 | 91.6 | inactive |
| Sdk2 (sidekick cell adhesion molecule 2) | 0 | enough cells in well | 121 | 149 | inactive |
| Gdf1 (growth differentiation factor 1) | -0.37 | enough cells in well | 171 | 150 | inactive |
| Pip4k2b (phosphatidylinositol-5-phosphate 4-kinase, type II, beta) | -0.42 | enough cells in well | 162 | 144 | inactive |
| Chrnb4 (cholinergic receptor, nicotinic, beta polypeptide 4) | -1.74 | enough cells in well | 128 | 60.1 | active |
| Hsp90ab1 (heat shock protein 90 alpha (cytosolic), class B member 1) | 0.04 | enough cells in well | 249 | 184 | inactive |
| Utp4 (UTP4 small subunit processome component) | 0.2 | enough cells in well | 268 | 131 | inactive |
| 4930432E11Rik (RIKEN cDNA 4930432E11 gene) | 0.11 | enough cells in well | 217 | 68.4 | inactive |
| Zic3 (zinc finger protein of the cerebellum 3) | -0.87 | enough cells in well | 216 | 135 | inactive |
| Ccl21b (C-C motif chemokine ligand 21B (leucine)) | 0.28 | enough cells in well | 193 | 174 | inactive |
| Zfta (zinc finger translocation associated) | – | fewer than 50 cells per well; well left out of calls | 216 | 78 | inactive |
